Values from PubChem BioAssay AID1259308 (NCATS, 2017)
This is one part, drawn at random, of about 59,000 reagents. Over the whole deposit, about 1,510 (2.6%) are marked active. 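Calls use total luciferase alone and ignore viability, so some active siRNAs may act by altering cell number.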 Entries without a mark were called inactive. The numbers tell different reagents against one gene apart. Not all columns of the deposit are shown.

- Purpose: 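Genes whose loss raises luciferase production in HEK293 cells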 (primary screen)
- Cell system: human HEK293 embryonic kidney cells stably expressing firefly luciferase (HEK-CMV-Luc2-Hygro)
- Knock-down reagent: single siRNA against human genes, 0.8 pmol siRNA per well
- Timing: 72 h
- Measured: 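Luciferase light (ONE-Glo) measured on one replicate plate set and viability (CellTiter-Glo) on the other, scaled to a negative control siRNA, with robust z-scores and luciferase per cell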
- Scale: total luciferase, z-score: higher = more reporter protein produced
- Call rule: 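An siRNA counts as active if its total luciferase robust z-score exceeds 3; genes with two or more such siRNAs out of three were retested with fresh siRNAs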
- Calls: active = raised luciferase; inactive = no rise

total luciferase, z-score, by target gene and reagent
HSDL1 (hydroxysteroid dehydrogenase like 1): #1 -0.878; #2 1.69; #3 1.53
THSD1 (thrombospondin type 1 domain containing 1): #1 0.678; #2 0.975; #3 0.914
PHC2 (polyhomeotic homolog 2): #1 -0.642; #2 2.75; #3 0.703
UCN2 (urocortin 2): #1 0.844; #2 0.461; #3 -1.46
OVOS1BP (ovostatin 1B, pseudogene): #1 -0.665; #2 2.74; #3 -1.3
ADAD1 (adenosine deaminase domain containing 1): #1 -0.251; #2 0.436; #3 -0.335
NOP16 (NOP16 nucleolar protein): #1 -2.03; #2 -0.495; #3 -1.36
EIF2AK1 (eukaryotic translation initiation factor 2 alpha kinase 1): #1 -1.39; #2 1.92; #3 3.15 (active)
CAPZA1 (capping actin protein of muscle Z-line subunit alpha 1): #1 1.27; #2 -0.232; #3 -0.964
OR6Y1 (olfactory receptor family 6 subfamily Y member 1): #1 0.626; #2 0.481; #3 3.18 (active)
MSTN (myostatin): #1 0.527; #2 -0.443; #3 3.93 (active)

Records listed so far whose target name starts with E or e:
total luciferase, z-score, by target gene and reagent
EIF2AK1 (eukaryotic translation initiation factor 2 alpha kinase 1): #1 -1.39; #2 1.92; #3 3.15 (active)

Next records:
total luciferase, z-score, by target gene and reagent
FAM120B (family with sequence similarity 120 member B): #1 1.26; #2 -0.294; #3 -1.08
RAB18 (RAB18, member RAS oncogene family): #1 -0.234; #2 -0.0609; #3 -0.544
ZBTB43 (zinc finger and BTB domain containing 43): #1 -1.69; #2 -1.03; #3 0.646
ZNF271P (zinc finger protein 271, pseudogene): #1 -0.921; #2 0.154; #3 -1.09
ASH1L-AS1 (ASH1L antisense RNA 1): #1 0.461; #2 -0.898; #3 0.15
CARS2 (cysteinyl-tRNA synthetase 2, mitochondrial): #1 0.805; #2 -0.196; #3 -2.01
RPS6KL1 (ribosomal protein S6 kinase like 1): #1 0.895; #2 -0.705; #3 -0.0324
FBXW5 (F-box and WD repeat domain containing 5): #1 0.409; #2 0.34; #3 1.05
